Assay [1] addresses RanBP9-TT (endogenous RanBP9 with a double tag made of HA and V5) (mouse) (UniProt P69566). The assay can be described thus: co-IP; anti-V5 magnetic beads on lysates of RanBP9-TT MEFs grown with 10% serum or deprived of serum for 4 h; IgG beads as control; Western blot.
In assay [2] the target is RanBP9-V5 (Ran Binding Protein 9 with a V5 tag at the C-terminus) (mouse) (UniProt P69566). In words: co-IP; anti-V5 magnetic beads on 1 mg pre-cleared NP-40 lysate of lung, liver or BMDM of E2aBP9V5 mice, overnight at 4 °C, 5 washes in NP-40 buffer, Western blot.

By UniProt entry, the sequences of proteins in these tests, tags left out.
UniProt P69566: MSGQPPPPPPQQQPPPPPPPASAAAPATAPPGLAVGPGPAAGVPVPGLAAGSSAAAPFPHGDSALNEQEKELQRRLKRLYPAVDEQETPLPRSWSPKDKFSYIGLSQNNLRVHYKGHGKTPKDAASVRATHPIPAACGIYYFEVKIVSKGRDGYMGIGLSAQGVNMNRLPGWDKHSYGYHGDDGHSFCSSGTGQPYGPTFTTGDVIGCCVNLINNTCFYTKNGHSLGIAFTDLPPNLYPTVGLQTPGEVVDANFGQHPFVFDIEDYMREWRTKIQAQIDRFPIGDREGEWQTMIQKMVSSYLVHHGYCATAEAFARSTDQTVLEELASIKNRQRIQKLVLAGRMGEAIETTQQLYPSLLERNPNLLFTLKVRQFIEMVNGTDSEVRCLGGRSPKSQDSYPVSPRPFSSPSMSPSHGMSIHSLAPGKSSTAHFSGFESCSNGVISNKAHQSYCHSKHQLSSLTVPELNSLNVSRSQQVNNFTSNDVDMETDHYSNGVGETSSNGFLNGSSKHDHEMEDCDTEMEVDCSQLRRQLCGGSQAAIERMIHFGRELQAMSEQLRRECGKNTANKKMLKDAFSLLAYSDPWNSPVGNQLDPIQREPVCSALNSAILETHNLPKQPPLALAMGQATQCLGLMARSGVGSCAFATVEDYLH
UniProt Q9D7M1: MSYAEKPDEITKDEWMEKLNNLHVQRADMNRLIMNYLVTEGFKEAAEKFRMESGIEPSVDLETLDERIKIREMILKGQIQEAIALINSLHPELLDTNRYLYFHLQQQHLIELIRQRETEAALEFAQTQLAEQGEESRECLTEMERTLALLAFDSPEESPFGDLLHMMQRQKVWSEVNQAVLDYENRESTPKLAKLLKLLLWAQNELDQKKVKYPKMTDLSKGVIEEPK
UniProt Q6VN19: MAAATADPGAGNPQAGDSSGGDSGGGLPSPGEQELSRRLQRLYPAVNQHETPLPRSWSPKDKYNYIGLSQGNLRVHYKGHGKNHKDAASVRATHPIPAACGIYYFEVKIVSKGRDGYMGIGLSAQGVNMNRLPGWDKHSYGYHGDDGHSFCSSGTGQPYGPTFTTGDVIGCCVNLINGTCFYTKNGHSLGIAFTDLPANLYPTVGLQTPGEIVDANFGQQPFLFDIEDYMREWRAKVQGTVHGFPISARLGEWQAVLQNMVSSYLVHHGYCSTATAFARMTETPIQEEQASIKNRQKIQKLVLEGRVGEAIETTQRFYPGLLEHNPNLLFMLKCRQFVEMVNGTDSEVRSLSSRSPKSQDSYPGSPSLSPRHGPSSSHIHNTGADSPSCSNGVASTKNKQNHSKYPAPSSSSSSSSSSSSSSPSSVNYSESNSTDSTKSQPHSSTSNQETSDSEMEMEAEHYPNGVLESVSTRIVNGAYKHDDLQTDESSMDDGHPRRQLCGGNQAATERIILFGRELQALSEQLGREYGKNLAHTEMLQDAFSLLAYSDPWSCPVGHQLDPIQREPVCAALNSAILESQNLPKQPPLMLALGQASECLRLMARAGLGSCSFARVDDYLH

From publication PMC11994786 come the findings set out here.

No constants are given. Whether binding was seen depends on the method and setting. Binding seen in cells or lysates may run through a third protein. Some binding calls cover weakened binding; strength is not graded here.

With “Gid8 (Glucose-induced degradation deficient 8) (from UniProt Q9D7M1 1-228)”, the binding result in assay [1] and in assay [2] was “binds” throughout.
As for “RanBP10 (Ran Binding Protein 10) (from UniProt Q6VN19 1-620)”, the binding entry in assay [1] is recorded as “binds”.

B1: Maea (Macrophage erythroblast attacher, E3 ubiquitin ligase) (protein, UniProt Q4VC33 1-396)
chain: MAVQESAAQLSMTLKVQEYPTLKVPYETLNKRFRAAQKNIDRETSHVTMVVAELEKTLSSCPAVDSVVSLLDGVVEKLSVLKRKAVESIQAEDESAKLCKRRIEHLKEHSSDQPAAASMWKRKRMDRMMVEHLLRCGYYNTAVKLARQSGIEDLVNIEMFLTAKEVEESLERRETATCLAWCHDNKSRLRKMKSCLEFSLRIQEFIELVRQNKRLDAVRHARKHFSQAEGSQLDEVRQVMGMLAFPPDTHISPYKDLLDPARWRMLIQQFRYDNYRLHQLGNSSVFTLTLQAGLSAIKTPQCYKEDGSSKSPDCPVCSRSLNKLAQPLPMAHCANSRLVCKISGDVMNENNPPMMLPNGYVYGYNSLLSIRQDDKVVCPRTKEVFHFSQAEKVYIM
As to B1, the binding entry in assay [2] is reported as “binds”.
